Experimental data: PubChem BioAssay AID720504 (National Center for Advancing Translational Sciences (NCATS), 2013)
Hit rate of the full screen: of about 360,000 compounds, about 10,000 (2.8%) were called active. This list was built around the results that the source calls inconclusive (neither active nor inactive); the mix of calls is not that of the screen. Calls come from the whole dose curve; as a rule, active = well fitted inhibition curve with a large enough effect; inconclusive = small, poorly fitted or top-dose-only effect; inactive = flat fitted curve, though single readings scatter. Potencies beside an inconclusive call are fits to weak or partial responses and may not hold up.

The chains behind the UniProt entries cited, without tags or fusion partners.
UniProt P53350, whole entry, looked up: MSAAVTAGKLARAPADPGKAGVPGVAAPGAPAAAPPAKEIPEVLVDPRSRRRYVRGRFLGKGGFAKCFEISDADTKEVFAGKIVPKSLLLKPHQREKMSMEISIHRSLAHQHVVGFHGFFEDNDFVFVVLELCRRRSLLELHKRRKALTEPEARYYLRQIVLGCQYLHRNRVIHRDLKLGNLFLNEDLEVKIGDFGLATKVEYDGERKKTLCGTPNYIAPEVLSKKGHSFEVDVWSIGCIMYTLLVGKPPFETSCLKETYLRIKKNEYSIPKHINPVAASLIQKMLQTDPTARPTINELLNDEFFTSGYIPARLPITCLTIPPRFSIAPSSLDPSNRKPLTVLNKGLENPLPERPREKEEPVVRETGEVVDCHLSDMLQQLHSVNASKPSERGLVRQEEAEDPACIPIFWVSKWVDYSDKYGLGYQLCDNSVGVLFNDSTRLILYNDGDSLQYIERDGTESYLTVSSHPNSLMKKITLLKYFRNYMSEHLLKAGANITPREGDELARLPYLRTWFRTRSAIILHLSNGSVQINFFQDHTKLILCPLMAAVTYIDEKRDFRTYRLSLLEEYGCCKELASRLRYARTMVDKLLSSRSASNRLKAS

What follows are compounds tested against Serine/threonine-protein kinase PLK1 (Homo sapiens) (UniProt P53350) (assay: qHTS for Inhibitors of PLK1-PDB (polo-like kinase 1 - polo-box domain): Primary Screen). Settings: Plk1 PBD binding of FITC phosphopeptide, fluorescence polarization.
% is set by controls: 0 for no effect and ±100 for the full control effect; potency is the fitted concentration of half-maximal effect.
Note: nearly all actives have a fitted effect of over 65% in size.
Throughout, for max response, negative = inhibition: series mostly up to about 57 µM.

Row | Compound | Potency | max response, negative = inhibition
1 | CC(=O)OC(Cn1nc(C)cc1C)c1ccccc1 (centres undefined) | inconclusive: 29.9 µM [inhibitor, single point] | 
2 | Cc1cc(C)cc(N(CCC(=O)Nc2nnc(C)s2)S(=O)(=O)c2ccc(Cl)cc2)c1 |  | inactive: -5.12%
3 | CC(Sc1nc(N)c2c3c(sc2n1)CSC(C)(C)C3)C(=O)Nc1ccccc1 (centres undefined) | active: 8.44 µM | 
4 | O=C1C=CC(=O)N1Cc1ccccc1 | active: 4.74 µM | 
5 | CC1CCN(c2nc(-c3ccco3)c3c(c2C#N)CC(C)(C)OC3)CC1 | inconclusive: 23.8 µM [inhibitor, partial curve] | 
6 | COCCNC(=O)CSc1ccccc1C(=O)NC1CCSc2ccccc21 (centres undefined) |  | inactive: -14%
7 | S=C(Cc1ccc(Cl)cc1)N1CCOCC1 | inconclusive: 8.44 µM [inhibitor, partial curve] | 
8 | Cc1c(NS(=O)(=O)c2cc(C(=O)N(C)Cc3ccccc3)ccc2Cl)c(=O)n(-c2ccccc2)n1C | inconclusive: 26.7 µM [inhibitor, partial curve] | 
9 | CC(NC(=O)C1CC2CCCC(C1)C2=O)c1ccccc1 (centres undefined) | inconclusive: 26.7 µM [inhibitor, single point] | 
10 | CCCCn1cnc2c(c1=O)c1nc3ccccc3nc1n2Cc1ccc2c(c1)OCO2 | inconclusive: 29.9 µM [inhibitor, single point] | 
11 | O=C(c1cc2ncccn2n1)N1CCc2c([nH]c3ccccc23)C1c1ccccc1F (centres undefined) |  | inactive: -15.9%
12 | CCCCCCCCNCCS(=O)(=O)NN1CCOCC1 | active: 7.52 µM | 
13 | Cc1oc(-c2ccccc2Cl)nc1CS(=O)CC(=O)NCc1cccs1 (centres undefined) |  | inactive: -10.4%
14 | CN(C)Cc1cc(C(C)(C)C)c(O)c(C(C)(C)C)c1 | active: 10.6 µM | 
15 | COC(=O)c1ccc2nc(-c3ccco3)c(Cc3ccccc3)n2c1 |  | inconclusive: -31.7% [inhibitor]
16 | S=C(NCc1cccc(Cl)c1)NCc1ccco1 | inconclusive: 26.7 µM [inhibitor, partial curve] | 
17 | COc1cc(/C=C2/SC(=O)NC2=O)ccc1OCc1ccccc1 | inconclusive: 29.9 µM [inhibitor, partial curve] | 
18 | COc1ccc(OC)c(S(=O)(=O)N2CCCC2C(=O)NC(C)c2ccccc2)c1 (centres undefined) |  | inactive: -0.469%
19 | COc1ccc2nc3cccc(OC)c3nc2c1 | inconclusive: 29.9 µM [inhibitor, single point] | 
20 | Cc1ccc(CNCc2ccco2)cc1 |  | inactive: -1.39%
21 | CCc1ccc(N2C(=O)c3sc4nnc(-c5ccccc5)c(=O)n4c3C2=O)cc1 | inconclusive: 11.9 µM [inhibitor, partial curve] | 
22 | COCCC(=O)Nc1ccc2c(c1)CN(C(=O)c1ccc(CSC)o1)CC2 | inconclusive: 37.7 µM [inhibitor, single point] | 
23 | Cn1c(N)c(C(=O)COC(=O)c2ccccc2C(=O)c2ccccc2)c(=O)n(C)c1=O |  | inactive: -11%
24 | CC1(C(=O)NS(=O)(=O)C2CC2)CCN(C(=O)c2c(F)cccc2F)C1 (centres undefined) |  | inactive: -1.49%
25 | CC(=O)c1sc2nc(CSc3nnnn3-c3ccccc3)[nH]c(=O)c2c1C | inconclusive: 42.3 µM [inhibitor, partial curve] | 

Arranged by SMILES length (high to low): three of the compounds above.
Row | Compound | Potency | max response, negative = inhibition
5 | CC1CCN(c2nc(-c3ccco3)c3c(c2C#N)CC(C)(C)OC3)CC1 | inconclusive: 23.8 µM [inhibitor, partial curve] | 
14 | CN(C)Cc1cc(C(C)(C)C)c(O)c(C(C)(C)C)c1 | active: 10.6 µM | 
19 | COc1ccc2nc3cccc(OC)c3nc2c1 | inconclusive: 29.9 µM [inhibitor, single point] | 

(listing goes on)

Row | Compound | Potency | max response, negative = inhibition
26 | Cc1ccc(S(=O)(=O)N2CCOCC2)cc1C(=O)Nc1nc(-c2ccccn2)cs1 | active: 16.8 µM | 
27 | NC(=O)c1c(NC(NC(=O)c2ccco2)C(=O)c2ccc(Cl)cc2)sc2c1CCCC2 (centres undefined) | inconclusive: 33.6 µM [inhibitor, single point] | 
28 | Cc1ccc(OC(=O)N(C)C[C@@H]2OCc3cn(nn3)CCCC(=O)N([C@H](C)CO)C[C@H]2C)cc1 |  | inconclusive: -35.1% [inhibitor]
29 | Cc1ccccc1CC(=O)NC1CCCc2ccccc21 (centres undefined) |  | inactive: -6.87%
30 | O=C(O)C1Nc2ccc(Br)cc2C2C=CCC12 (centres undefined) | active: 5.32 µM | 
31 | COc1cc(Cl)ccc1OC1(C)CCN(Cc2cccc(OC)c2OC)C1 (centres undefined) |  | inactive: -2.62%
32 | Cc1ccc(C2=NC3(CCCC3)N=C2SCC(=O)Nc2ccc3c(c2)OCCO3)cc1 | inconclusive: 26.7 µM [inhibitor, partial curve] | 
33 | Cc1ccc2c(c1)CCCN2C(=O)c1ccoc1C | inconclusive: 26.7 µM [inhibitor, partial curve] | 
34 | COc1ccccc1N1CCN(CCOc2c(OC)cccc2OC)CC1 | inconclusive: 10.6 µM [inhibitor, partial curve] | 
35 | N#Cc1cc2c([nH]c1=O)CCCC2 |  | inactive: 1.51%
36 | Cc1ccccc1Nc1scc(-c2ccc(Cl)cc2)[n+]1-c1ccccc1C | inconclusive: 26.7 µM [inhibitor, single point] | 
37 | CCCCC1CCC(C(=O)Nc2ccc(S(=O)(=O)Nc3nccs3)cc2)CC1 (centres undefined) | inconclusive: 23.8 µM [inhibitor, partial curve] | 
38 | CCCCOc1nc2ccccc2nc1C(C#N)C(=O)NC1CCCCC1 (centres undefined) | active: 26.7 µM | 
39 | CCOc1ccc2nc(NC(=O)CSc3ccc(Cl)cc3)sc2c1 | inconclusive: 26.7 µM [inhibitor, single point] | 
40 | COc1ccc(N2CCN(C(=S)NCc3ccccc3)CC2)cc1 |  | inactive: 0.862%
41 | Oc1ccc2ccccc2c1/C=N/Nc1ccccc1 | inconclusive: 18.9 µM [inhibitor, partial curve] | 
42 | O=C(Nc1ccc(Cl)cc1)OCCn1nnnc1C(c1ccccc1Cl)N1CCOCC1 (centres undefined) | active: 21.2 µM | 
43 | COc1ccc([C@H]2CC(=O)C=C(c3ccc(CO)cc3)C2)cc1 | active: 23.8 µM | 
44 | Cc1ccnc(NS(=O)(=O)c2ccc(NC(=O)c3cc(=O)c4ccccc4o3)cc2)n1 |  | inconclusive: -34.1% [inhibitor]
45 | C=C(C)CSc1nc2sc3c(c2c(=O)n1C1CCCCC1)CCN(C)C3 |  | inactive: -19.2%
46 | CCn1ccnc1CNC(=O)c1ccc(OC2CCN(C(=O)COC)CC2)cc1 |  | inconclusive: -5.96% [inhibitor]
47 | COc1cccc(C2=NN(C(=O)c3cccs3)C(O)(C(F)(F)F)C2)c1 (centres undefined) | inconclusive: 21.2 µM [inhibitor, single point] | 
48 | Cc1ccc(NC(=O)CCn2c(=S)oc3ccccc32)cc1F |  | inactive: -10.8%
49 | CC(=O)Nc1cc(C)c(S(C)(=O)=O)c(C)c1 |  | inactive: -7.47%
50 | CCOC(=O)C1CCN(S(=O)(=O)Cc2ccc(Cl)cc2)CC1 | inconclusive: 33.6 µM [inhibitor, single point] | 

Row | Compound | Potency | max response, negative = inhibition
51 | O=C(Cn1c(-c2ccccc2)c[n+]2ccsc12)c1ccc(Br)cc1 | inconclusive: 18.9 µM [inhibitor, partial curve] | 
52 | N#C/C(=C\c1ccc(F)cc1F)S(=O)(=O)c1ccccn1 | inconclusive: 21.2 µM [inhibitor, partial curve] | 
53 | C=CCN1C(=O)C(CC(=O)O)SC1=Nc1ccc(N=Nc2ccccc2)cc1 (centres undefined) |  | inactive: -18.7%
54 | CCc1nnc(NC(=O)c2ccc(S(C)(=O)=O)cc2)s1 | active: 9.47 µM | 
55 | O=C1COc2ccc(C(=O)CSc3nc4ccccc4c(=O)n3-c3ccc(Cl)c(Cl)c3)cc2N1 |  | inactive: -6.26%
56 | COc1ccc(N/N=C(C)/C(=N/O)C(=O)Nc2ccccc2)cc1 |  | inactive: -24.3%
57 | COCCCN(C(=S)Nc1c(C)cc(C)cc1C)C(C)c1ccncc1 (centres undefined) | inconclusive: 23.8 µM [inhibitor, partial curve] | 
58 | CN(C)CCCSc1nc(-c2ccccc2)nc2c1CCC2 |  | inconclusive: -16.6% [inhibitor]
59 | Cc1cc(C(F)(F)F)nc(CCNCc2c(C(=O)N3CCCC3)nc3ccccn23)n1 |  | inactive: -0.521%
60 | Cc1sc2ncnc(SCC(=O)NC(C)(C)C)c2c1C |  | inactive: -18.2%
61 | COc1ccc(OCc2nnc(SCC(=O)NC3CCCCC3)o2)cc1 | inconclusive: 33.6 µM [inhibitor, single point] | 
62 | COc1cccc2c1C(=O)c1c(O)c3c(c(O)c1C2=O)CC(O)(C(C)=O)CC3OC1CC(N(C)C)C(O)C(C)O1 (centres undefined) | inconclusive: 11.9 µM [inhibitor, partial curve] | 
63 | CCOC(=O)c1c(NC(=O)COC)sc(C)c1C |  | inactive: -2.56%
64 | CC1CCCCC1NC(=O)c1ccc(S(=O)(=O)NNC(=O)c2ccncc2)cc1 (centres undefined) | inconclusive: 21.2 µM [inhibitor, partial curve] | 
65 | N#CC1=C(N)N2C(=C(C#N)C1c1ccc(Br)cc1)Nc1ccccc12 (centres undefined) | active: 26.7 µM | 
66 | CCOC(=O)c1c2n(c3ccc(O)cc13)CCC2 | inconclusive: 37.7 µM [inhibitor, single point] | 
67 | O=C(NCCc1csc(-c2ccccc2)n1)c1ccco1 | active: 10.6 µM | 
68 | Cc1nc(-c2ccc(NC(=O)/C=C\C(=O)O)cc2)cs1 | active: 21.2 µM | 
69 | COCCNC(=S)N/N=C(\C)c1cccc([N+](=O)[O-])c1 |  | inactive: -2.63%
70 | CCc1nnc(NC(=O)CSc2nc3ccccc3s2)s1 | inconclusive: 8.44 µM [inhibitor, partial curve] | 
71 | CC(=O)Nc1ccc(S(=O)(=O)Nc2nc3ccccc3nc2Sc2nncn2C)cc1 | inconclusive: 26.7 µM [inhibitor, partial curve] | 
72 | Cc1ccc(-n2c(-c3ccccc3)n[nH]c2=S)cc1 | inconclusive: 29.9 µM [inhibitor, partial curve] | 
73 | O=C1NCCCC1C(=O)N1CCN(C(c2ccccc2)c2ccccc2)CC1 (centres undefined) | inconclusive: 37.7 µM [inhibitor, single point] | 
74 | CCC1CCCCN1S(=O)(=O)c1ccc(C(=O)Nc2nnc(-c3cccs3)o2)cc1 (centres undefined) | inconclusive: 31.6 µM [inhibitor, partial curve] | 
